# Measurements reported in PubChem BioAssay AID1347076 (National Center for Advancing Translational Sciences (NCATS), 2019).
# The campaign covered roughly 400,000 compounds. About 13,000 (3.2%) were called active. Inconclusive results, whose numbers are uncertain, are shown with a selection of clear calls. Calls follow the shape of the dose curve; as a rule, active = well fitted cell-killing curve with a large enough effect; inconclusive = small, poorly fitted or top-dose-only effect, or effect the other way; inactive = flat fitted curve, though single readings scatter. Potencies of inconclusive entries are doubtful fits and often do not repeat.
# Test: qHTS assay for MDR1-selective chemotherapeutics: Primary screen using the drug-selected MDR subline cells KB-V1; also: nearly all actives have a fitted effect of over 60% in size
# Details: KB-V1 MDR cells viability, CellTiter-Glo, 72 h; activity change, negative = cytotoxicity: at 46.1 µM (top of the series)
# Procedure, shortened: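 Readout: CellTiter-Glo luminescence, 10 min after addition. Cells: KB-V1 MDR subline, 72 h at 37 degrees C with compound. Analysis: corrected, normalized data fitted to concentration-effect curves.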
# % is scaled to controls: 0 for no effect and ±100 for the full control effect; potency is read from the fitted curve at half-maximal effect.
Structure (SMILES),Potency,"activity change, negative = cytotoxicity"
Cc1ccc(C2=C(O)C(=O)C(c3ccc(C)cc3)=C(O)C2=O)cc1,active: 14.6 µM,–
O=C(CSc1nc2ccccc2s1)NCC1CCCO1 (configuration not stated),inactive,–
Cc1nn2c(N)c(-c3ccccc3)cnc2c1-c1ccc(Cl)cc1,"inconclusive: 32.6 µM [cytotoxic, single point]",–
CCCc1nnc(NC(=O)CCC(=O)N2CCN(Cc3ccc(Cl)cc3)CC2)s1,"inconclusive: 25.9 µM [cytotoxic, single point]",–
O=C(COc1ncnc2cc(Cl)ccc12)c1ccc2c(c1)OCCO2,inactive,–
CC(C)CN1C(=O)C(=O)N(CC(=O)c2ccc3c(c2)CCCC3)C1=O,active: 16.4 µM,–
O=C(COC(=O)c1ccc(Cl)c(S(=O)(=O)N2CCCC2)c1)NCc1ccccc1,inactive,–
COc1cc(OC)c(NC(=O)CC(c2cccs2)N2Cc3ccccc3C2=O)cc1Cl (configuration not stated),inactive,–
Cc1ccccc1Nc1sc(C(=O)c2ccccc2)c(N)c1C(=O)NCc1ccc(Cl)cc1,"inconclusive: 29.1 µM [cytotoxic, single point]",–
C=CCSc1nnc(-c2c[nH]c3ccccc23)n1CC,inactive,–
CC(C)CNS(=O)(=O)c1ccc(CCC(=O)NC2CCCCC2)cc1,"inconclusive: 14.6 µM [cytotoxic, single point]",–
CCOC(=O)c1c(C)c(C(=O)Nc2ccc3c(c2)OCO3)c(C)n1C,"inconclusive: 13 µM [cytotoxic, partial curve]",–
O=C1NC(=Nc2ccc3ccccc3c2)S/C1=C/c1ccco1,"inconclusive: 20.6 µM [rising, single point]",–
N/C(=N\c1nc2ccccc2o1)NC(=O)c1ccccc1Br,inactive,–
CCN(CC)S(=O)(=O)c1ccc(NN=C2CCN(C)CC2)c([N+](=O)[O-])c1,inactive,–
Cc1ccc(S(=O)(=O)N2CCCC2C(=O)NCc2ccco2)cc1 (configuration not stated),"inconclusive: 18.4 µM [cytotoxic, partial curve]",–
NC(=O)CSc1nnc(COc2ccccc2)n1Cc1ccco1,"inconclusive: 14.6 µM [rising, partial curve]",–
CCOC(=O)C1CCN(S(=O)(=O)c2cc3c4c(c2)CC(=O)N4CCC3)CC1,inactive,–
COc1ccc(CCNC(=S)NC2CCN(Cc3ccccc3)CC2)cc1,"inconclusive: 29.1 µM [cytotoxic, single point]",–
CC(=O)c1sc(-c2ccccc2)cc1NS(=O)(=O)c1ccc(C)cc1,–,inconclusive: -4.91%
Cc1cc(C)nc(-n2nc(C)cc2NC(=O)CN2CCCC2)n1,inactive,–
O=C(CSc1nnc(-c2ccccc2)n1-c1ccccc1)c1cccs1,active: 20.6 µM,–
CSc1ccccc1NC(=O)COC(=O)Cn1cc(C(F)(F)F)ccc1=O,inactive,–
CCOC(=O)Cc1csc(NC(=O)c2cc3c(s2)CCCC3)n1,"inconclusive: 11.2 µM [cytotoxic, partial curve, poor fit]",–
O=C(Cc1cccs1)NC(c1ccccc1)c1ccccc1,inactive,–
COc1cccc(-c2cnc3c(NC(C)=O)cc(-c4ccncc4)cn23)c1,"inconclusive: 20.6 µM [cytotoxic, single point]",–

Structure (SMILES),Potency,"activity change, negative = cytotoxicity"
CC(C)(C)OC(=O)NC(Cc1ccccc1)C(=O)NCCCC(=O)O (configuration not stated),–,inconclusive: 44.4%
CCc1ccc(C2c3[nH]c4ccccc4c3CCN2C(=O)CN2CCN(CC)CC2)cc1 (configuration not stated),inactive,–
CC(=O)c1cccc(CN2CCCC(N3CCN(c4ccccc4F)CC3)C2)c1 (configuration not stated),inactive,–
Cc1cc(Cl)ccc1OCc1nnc2n1CCCCC2,"inconclusive: 29.1 µM [cytotoxic, single point]",–
O=C(NCCc1ccccc1)C1(c2cccs2)CCOCC1,inactive,–
COc1ccc(CNC(=O)Nc2nnc([C@@H]3C[C@H](O)[C@@H](CO)O3)s2)cc1,inactive,–
CC(=O)/C(N=Nc1ccc(SC(F)F)cc1)=C(\C)O,inactive,–
Cn1c(=O)c2c(nc(N3CCN(c4ccccc4)CC3)n2CCCc2ccccc2)n(C)c1=O,"inconclusive: 13 µM [cytotoxic, partial curve, poor fit]",–
COc1cccc(/C=N/NC(=O)c2cnccn2)c1OC,inactive,–
Cc1ccc(NC(=O)CNS(=O)(=O)c2cccs2)cc1F,"inconclusive: 32.6 µM [cytotoxic, partial curve, poor fit]",–
CCN(C(=O)CSc1nnc(-c2ccc3c(c2)OCO3)o1)C1CCS(=O)(=O)C1 (configuration not stated),"inconclusive: 18.4 µM [cytotoxic, partial curve]",–
CCc1nn(C(C)C(=O)N2CCN(c3cccc(C(F)(F)F)c3)CC2)c(=O)c2cc3occc3n12 (configuration not stated),active: 8.2 µM,–
CC(CN(C)C)CN1c2ccccc2Sc2ccccc21 (configuration not stated),active: 18.4 µM,–
COC(=O)CNc1cccc(C(F)(F)F)c1,"inconclusive: 11.6 µM [rising, partial curve, poor fit]",–
CCc1noc(C)c1C(=O)OCC(=O)c1ccc(NC(C)=O)cc1F,inactive,–
CCOc1cc2c(cc1OC)C(NC(=O)c1ccco1)CC2=O (configuration not stated),inactive,–
Cc1ccccc1N1CCN(CCCOc2ccc3c(C)cc(=O)oc3c2)CC1,active: 11.2 µM,–
Cc1ccc(C(O)(c2ccccc2)c2ccccc2C(C)N(C)C)c(C)c1 (configuration not stated),active: 18.4 µM,–
O=C(CN1C(=O)NC2(CCCCC2)C1=O)N1CCN(S(=O)(=O)c2ccc(Cl)s2)CC1,inactive,–
COc1ccccc1NC(=O)CSc1nc(O)cc(=O)n1-c1ccccc1OC,inactive,–
CCS(=O)(=O)N1CCC(C(=O)Oc2ccc(Cl)cc2)CC1,inactive,–
C/C(CC(=O)Nc1ccc(N(C)C)cc1)=N\NC(=O)C(=O)NCc1ccccc1,"inconclusive: 0.291 µM [cytotoxic, full curve]",–
CCCCn1cc2c(c1-c1ccccc1Br)c(=O)n(C)c(=O)n2C,inactive,–
Cc1ccc(C)c(OCC(=O)Nc2cc(NC(=O)COc3cc(C)ccc3C)cc(C(=O)O)c2)c1,"inconclusive: 29.1 µM [rising, single point]",–
CCCCn1nnc(NC(=S)NC(=O)c2ccc(-c3cccc(Cl)c3Cl)o2)n1,active: 14.6 µM,–
Cn1cc(CN2CCCC(C(=O)c3nccn3C)C2)c(-c2cccc(Cl)c2)n1 (configuration not stated),"inconclusive: 7.31 µM [cytotoxic, partial curve, poor fit]",–

# Individual results from the list.
# Entry for COC(=O)CNc1cccc(C(F)(F)F)c1 under Potency: inconclusive: 11.6 µM [rising, partial curve, poor fit]
# Entry for CC(=O)/C(N=Nc1ccc(SC(F)F)cc1)=C(\C)O under Potency: inactive
